Substitutions are numbered along the chain they refer to. No constants are given. Whether binding was seen depends on the method and setting. Some binding calls cover weakened binding; strength is not graded here.
Tests used:
[1] = target: native TDP-43 in cynomolgus monkey serum (cynomolgus monkey); experiment: SIMOA measurement of free/unbound TDP-43 in cynomolgus monkey serum after a single IV bolus of 40 mg/kg (target engagement, Example 10)
[2] = target: aggregated and phosphorylated TDP-43 enriched from an FTLD-TDP brain extract (human) (UniProt Q13148); experiment: immunodepletion of FTLD-TDP brain extract, TDP-43 immunoblot
[3] = target: native TDP-43 in cynomolgus monkey serum (cynomolgus monkey); experiment: SIMOA of unbound TDP-43 in serum of dosed cynomolgus monkeys
[4] = target: aggregated and phosphorylated TDP-43 enriched from an FTLD-TDP brain extract (human) (UniProt Q13148); experiment: immunodepletion of FTLD-TDP brain extract, Western blot quantification normalized to input (Example 13)

Measured: binding

B1: hACI-7069-633B12-Ab1_H33L27 (antibody, V domains shown)
VH: EVQLVQSGAEVKKPGATVKISCKVSGFTFTEYSMHWVQQAPGKGLEWMGGINPNNGGTSYNQKFQGRVTITADTSTDTAYMELSSLRSEDTAVYYCARESWGQGTTVTVSS
VL: DIVMTQSPLSLPVTPGEPASISCKSSQSLLHSDGKTYLNWLLQKPGQSPQRLIYLVSKLDSRVPDRFSGSGSGTDFTLKISRVEAEDVGVYYCFQGTHFPHTFGQGTKLEIK
binds: all assays above

B2: hACI-7069-633B12-Ab1_H32L27 (antibody, V domains shown)
VH: B1 VH with N54Q, G56A
VL: B1 VL
binds: [1] | [3]

— US20250145695A1
